Reference: publication PMC6985235
Results are given in words; binding and its absence hold for the method and conditions named. For some of these results: Binding seen in cells or lysates may run through a third protein. Some binding calls cover weakened binding; strength is not graded here. Each block holds one substance with its values, some of them ahead of it.

By UniProt entry, the sequences of proteins in these tests, tags left out.
UniProt A2DLL4: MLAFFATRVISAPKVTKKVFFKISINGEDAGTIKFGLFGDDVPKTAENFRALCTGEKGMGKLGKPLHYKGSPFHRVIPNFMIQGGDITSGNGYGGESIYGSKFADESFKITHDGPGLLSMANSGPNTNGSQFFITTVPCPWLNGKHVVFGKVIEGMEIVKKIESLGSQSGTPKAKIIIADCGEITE

Legend:
[1] = biological target: GST-TvCyP1 (Trichomonas vaginalis) (UniProt A2DT06); assay: pull-down; GST pull-down: 30 picomoles of GST or GST-fusion protein on 20 μl glutathione beads with 35 nM His-tagged protein in 1 ml TEN200 (1 mM EDTA, 200 mM NaCl, 20 mM Tris-HCl pH 7.4), 4 °C overnight; washes with 0.1% TritonX-100; anti-6xHis Western blot; in Fig. 3D also with DMSO or 5 μM cyclosporine A (binding greatly diminished); both purified
[2] = biological target: GST-TvCyP1(R63A) (Trichomonas vaginalis) (UniProt A2DT06); assay: as above
[3] = biological target: HA-TvCyP2 (Trichomonas vaginalis) (UniProt A2DLL4); assay: co-IP; total lysates of T. vaginalis overexpressing the HA-tagged protein (1% TritonX-100 in PBS), agarose-conjugated anti-HA antibody, 4 °C overnight; Western blot
[4] = biological target: HA-TvCyP1 (Trichomonas vaginalis) (UniProt A2DT06); assay: as above

Substance: His-TvCyP2 (from UniProt A2DLL4 1-186) (enzyme)
binding [1]: binds
binding [2]: binds

binding [3]: binds
Substance: TvCyP1 (endogenous) (from UniProt A2DT06 1-173) (enzyme)

binding [4]: binds
Substance: TvCyP2 (endogenous) (from UniProt A2DLL4 1-186) (enzyme)
